Laboratory results reported in patent US20100098690A1, “PHARMACEUTICAL COMPOSITION” (KYOWA HAKKO KIRIN CO., LTD., priority 2007, published 2010).
At least one structure is not confirmed: it was looked up by name or label, or the drawing left a doubt.

Columns and labels:
Experiment in all cases: In vitro cell growth inhibition assay (WST-1) with isobologram analysis of combination effect
Assay type in all cases: cell-based
Details in all cases: combined with the test compound (hydrochloride of Compound 22), 72 hours, isobologram method
[1] = system: human multiple myeloma cell line (NCI-H929)
Method: Measurement of the cell growth inhibition rate of the test compound and a combined compound on a human multiple myeloma cell line (NCI-H929), a human non-small-cell lung cancer cell line (PC-9), a human breast cancer cell line (BT-474), a human renal cancer cell line (VMRC-RCZ), a human chronic myeloid leukemia cell line (K-562) and a human acute myeloid leukemia cell line (MOLM-13) was carried out in the following manner. […]
(§1) The solutions of the test compound and the combined compound diluted with culture medium were added to the plates in an amount of 10 μL/well, respectively, followed by further incubation in a 5% CO2 incubator at 37° C. for 72 hours. […] The absorbance at 450 nm (control wavelength: 655 nm) was measured using a microplate spectrophotometer SPECTRA max 340PC (Molecular Devices). Separately, the solvent used for preparation of each compound solution alone was added to the wells, and the absorbance was measured in the same manner as above after 72-hour incubation carried out in the same manner as above and also immediately after the addition of the solvent. The cell growth inhibition rate on the cells in the compound-added groups (groups treated with the test compound alone, the combined compound alone, or both compounds) was calculated according to the following equation. […]

[2] = system: human renal cancer cell line (VMRC-RCZ)
Method: (§2) Measurement of the cell growth inhibition rate of the test compound and a combined compound on a human multiple myeloma cell line (NCI-H929), a human non-small-cell lung cancer cell line (PC-9), a human breast cancer cell line (BT-474), a human renal cancer cell line (VMRC-RCZ), a human chronic myeloid leukemia cell line (K-562) and a human acute myeloid leukemia cell line (MOLM-13) was carried out in the following manner.
For the culture of VMRC-RCZ, Minimum Essential Medium (MEM) (Invitrogen) containing 10% FCS, 0.1 mmol/L Non-Essential Amino Acids (NEAA, Invitrogen), 4 mmol/L HEPES, 2 mmol/L L-glutamine and 1.5 g/L sodium hydrogencarbonate was used. […]
as §1, with “solvent.” for “solvent. The cell growth inhibition rate on the cells in the compound-added groups (groups treated with the test compound alone, the combined compound alone, or both compounds) was calculated according to the following equation.”

[3] = system: human acute myeloid leukemia cell line (MOLM-13)
Method: as §2
For the culture of VMRC-RCZ, Minimum Essential Medium (MEM) (Invitrogen) containing 10% FCS, 0.1 mmol/L Non-Essential Amino Acids (NEAA, Invitrogen), 4 mmol/L HEPES, 2 mmol/L L-glutamine and 1.5 g/L sodium hydrogencarbonate was used. For the culture of K-562, Iscove's Modified Dulbecco's Medium (IMDM) (Invitrogen) containing 10% FCS was used. For the culture of MOLM-13, RPMI1640 medium containing 10% FCS was used.
NCI-H929 cells were suspended to 12.5×10^4 cells/mL with culture medium (PC-9, 0.625×10^4 cells/mL; BT-474, 12.5×10^4 cells/mL; VMRC-RCZ, 2.5×10^4 cells/mL; MOLM-13, 12.5×10^4 cells/mL; K-562, 6.25×10^4 cells/mL), and the cell suspensions were seeded to the wells of 96-well U-bottom plates (Nalge Nunc International) in an amount of 80 μL/well, followed by incubation in a 5% CO2 incubator at 37° C. for 5 hours (PC-9, BT-474 and VMRC-RCZ, 24 hours; MOLM-13 and K-562, 4 hours). […]

CO[C@H]1C[C@@H]2CC[C@@H](C)[C@@](O)(O2)C(=O)C(=O)N2CCCC[C@H]2C(=O)O[C@H]([C@H](C)C[C@@H]2CC[C@@H](O)[C@H](OC)C2)CC(=O)[C@H](C)/C=C(\C)[C@@H](O)[C@@H](OC)C(=O)[C@H](C)C[C@H](C)/C=C/C=C/C=C/1C [Rapamycin, rapamycin]
Combination effect of test compound and each compound [1]: Envelope of additivity

CCN(CC)CCNC(=O)c1c(C)[nH]c(/C=C2\C(=O)Nc3ccc(F)cc32)c1C [Sunitinib, sunitinib]
Combination effect of test compound and each compound [2]: Supra-additive

C[C@@H]1C[C@H]2[C@@H]3CCC4=CC(=O)C=C[C@]4(C)[C@@]3(F)[C@@H](O)C[C@]2(C)[C@@]1(O)C(=O)CO [Dexamethasone, dexamethasone]
Combination effect of test compound and each compound [1]: Envelope of additivity

Nc1nc(F)nc2c1ncn2[C@@H]1O[C@H](CO)[C@@H](O)[C@@H]1O [Fludarabine, fludarabine]
Combination effect of test compound and each compound [3]: Envelope of additivity
